The list shows a part of the results, in another mix than the full data.
compound: COC(=O)C#Cc1ccccc1 [methyl 3-phenylpropiolate]; experiment: log2 ratio of iodoacetamide-alkyne labeling of the cysteine site, DMSO over compound (competition); higher = stronger covalent engagement of the cysteine by the compound, active = 1 or more; conditions: 500 µM; treatment time 1 h; system: HEK293T cell lysate
Method in brief: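 For each cysteine, the log2 competition ratio is mean control-channel reporter intensity over mean compound-channel reporter intensity. HEK293T lysate (2 mg/mL) was exposed to vehicle or electrophile (500 µM, 1 h, ambient temperature), labelled with iodoacetamide alkyne (1 h), clicked to sCIP-TMT reagents, digested overnight with trypsin at 37 °C, streptavidin-enriched and analysed by Orbitrap Eclipse LC-MS/MS with FAIMS and FragPipe. Cysteines quantified in only one of three replicates, each with duplicate channels, were excluded.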

Chains of the proteins cited; added tags and fusions are not shown. Lines headed by an entry give the natural chain unless they say otherwise; changes in a name come on top.
UniProt Q8WXK3: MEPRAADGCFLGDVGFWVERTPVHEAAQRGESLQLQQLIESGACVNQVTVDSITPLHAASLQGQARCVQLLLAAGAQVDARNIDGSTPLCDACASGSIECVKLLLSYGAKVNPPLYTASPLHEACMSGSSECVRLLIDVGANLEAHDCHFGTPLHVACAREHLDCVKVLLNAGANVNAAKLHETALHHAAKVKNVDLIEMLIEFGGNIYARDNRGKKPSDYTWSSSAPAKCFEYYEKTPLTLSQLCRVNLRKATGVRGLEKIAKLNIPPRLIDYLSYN
UniProt Q8WUM4: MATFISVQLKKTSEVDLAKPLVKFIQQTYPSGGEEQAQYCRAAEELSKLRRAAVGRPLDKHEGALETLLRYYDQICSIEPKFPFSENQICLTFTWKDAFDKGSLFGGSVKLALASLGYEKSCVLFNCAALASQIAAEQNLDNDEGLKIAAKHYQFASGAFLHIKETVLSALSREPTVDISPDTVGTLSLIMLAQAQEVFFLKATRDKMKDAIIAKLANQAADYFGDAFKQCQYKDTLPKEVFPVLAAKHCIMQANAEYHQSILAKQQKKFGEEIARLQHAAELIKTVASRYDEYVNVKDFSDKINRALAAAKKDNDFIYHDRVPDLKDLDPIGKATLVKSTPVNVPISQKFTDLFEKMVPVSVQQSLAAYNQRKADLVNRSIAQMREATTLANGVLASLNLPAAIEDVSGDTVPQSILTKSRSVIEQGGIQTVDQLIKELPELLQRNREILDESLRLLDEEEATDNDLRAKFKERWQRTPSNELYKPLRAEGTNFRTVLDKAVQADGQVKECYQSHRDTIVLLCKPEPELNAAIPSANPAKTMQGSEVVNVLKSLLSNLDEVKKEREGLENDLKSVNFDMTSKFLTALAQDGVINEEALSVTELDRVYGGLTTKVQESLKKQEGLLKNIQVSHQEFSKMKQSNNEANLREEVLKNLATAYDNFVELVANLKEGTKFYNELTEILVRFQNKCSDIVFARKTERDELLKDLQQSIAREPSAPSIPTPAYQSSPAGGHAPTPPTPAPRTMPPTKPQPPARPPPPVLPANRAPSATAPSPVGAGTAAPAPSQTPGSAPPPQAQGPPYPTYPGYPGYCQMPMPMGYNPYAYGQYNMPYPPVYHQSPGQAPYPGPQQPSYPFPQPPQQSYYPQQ
UniProt Q8WUM9: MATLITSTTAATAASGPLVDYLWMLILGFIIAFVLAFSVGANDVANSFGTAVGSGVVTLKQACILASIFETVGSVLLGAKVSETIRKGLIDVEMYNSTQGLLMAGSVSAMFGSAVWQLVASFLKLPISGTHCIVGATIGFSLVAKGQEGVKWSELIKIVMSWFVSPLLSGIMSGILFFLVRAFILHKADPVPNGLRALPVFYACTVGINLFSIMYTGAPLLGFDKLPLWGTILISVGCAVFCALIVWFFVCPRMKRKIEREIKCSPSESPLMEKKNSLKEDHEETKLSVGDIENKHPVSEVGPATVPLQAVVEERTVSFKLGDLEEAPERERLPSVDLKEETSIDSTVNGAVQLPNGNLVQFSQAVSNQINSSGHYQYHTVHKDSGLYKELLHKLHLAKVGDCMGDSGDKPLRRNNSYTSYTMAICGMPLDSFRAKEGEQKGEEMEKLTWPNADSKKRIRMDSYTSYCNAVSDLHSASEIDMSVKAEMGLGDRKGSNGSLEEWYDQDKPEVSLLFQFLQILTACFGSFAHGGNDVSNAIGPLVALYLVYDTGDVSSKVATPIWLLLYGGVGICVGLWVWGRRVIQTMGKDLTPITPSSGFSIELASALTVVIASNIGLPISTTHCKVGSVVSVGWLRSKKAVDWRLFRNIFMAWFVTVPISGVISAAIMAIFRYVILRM
UniProt Q8N201, whole entry, looked up: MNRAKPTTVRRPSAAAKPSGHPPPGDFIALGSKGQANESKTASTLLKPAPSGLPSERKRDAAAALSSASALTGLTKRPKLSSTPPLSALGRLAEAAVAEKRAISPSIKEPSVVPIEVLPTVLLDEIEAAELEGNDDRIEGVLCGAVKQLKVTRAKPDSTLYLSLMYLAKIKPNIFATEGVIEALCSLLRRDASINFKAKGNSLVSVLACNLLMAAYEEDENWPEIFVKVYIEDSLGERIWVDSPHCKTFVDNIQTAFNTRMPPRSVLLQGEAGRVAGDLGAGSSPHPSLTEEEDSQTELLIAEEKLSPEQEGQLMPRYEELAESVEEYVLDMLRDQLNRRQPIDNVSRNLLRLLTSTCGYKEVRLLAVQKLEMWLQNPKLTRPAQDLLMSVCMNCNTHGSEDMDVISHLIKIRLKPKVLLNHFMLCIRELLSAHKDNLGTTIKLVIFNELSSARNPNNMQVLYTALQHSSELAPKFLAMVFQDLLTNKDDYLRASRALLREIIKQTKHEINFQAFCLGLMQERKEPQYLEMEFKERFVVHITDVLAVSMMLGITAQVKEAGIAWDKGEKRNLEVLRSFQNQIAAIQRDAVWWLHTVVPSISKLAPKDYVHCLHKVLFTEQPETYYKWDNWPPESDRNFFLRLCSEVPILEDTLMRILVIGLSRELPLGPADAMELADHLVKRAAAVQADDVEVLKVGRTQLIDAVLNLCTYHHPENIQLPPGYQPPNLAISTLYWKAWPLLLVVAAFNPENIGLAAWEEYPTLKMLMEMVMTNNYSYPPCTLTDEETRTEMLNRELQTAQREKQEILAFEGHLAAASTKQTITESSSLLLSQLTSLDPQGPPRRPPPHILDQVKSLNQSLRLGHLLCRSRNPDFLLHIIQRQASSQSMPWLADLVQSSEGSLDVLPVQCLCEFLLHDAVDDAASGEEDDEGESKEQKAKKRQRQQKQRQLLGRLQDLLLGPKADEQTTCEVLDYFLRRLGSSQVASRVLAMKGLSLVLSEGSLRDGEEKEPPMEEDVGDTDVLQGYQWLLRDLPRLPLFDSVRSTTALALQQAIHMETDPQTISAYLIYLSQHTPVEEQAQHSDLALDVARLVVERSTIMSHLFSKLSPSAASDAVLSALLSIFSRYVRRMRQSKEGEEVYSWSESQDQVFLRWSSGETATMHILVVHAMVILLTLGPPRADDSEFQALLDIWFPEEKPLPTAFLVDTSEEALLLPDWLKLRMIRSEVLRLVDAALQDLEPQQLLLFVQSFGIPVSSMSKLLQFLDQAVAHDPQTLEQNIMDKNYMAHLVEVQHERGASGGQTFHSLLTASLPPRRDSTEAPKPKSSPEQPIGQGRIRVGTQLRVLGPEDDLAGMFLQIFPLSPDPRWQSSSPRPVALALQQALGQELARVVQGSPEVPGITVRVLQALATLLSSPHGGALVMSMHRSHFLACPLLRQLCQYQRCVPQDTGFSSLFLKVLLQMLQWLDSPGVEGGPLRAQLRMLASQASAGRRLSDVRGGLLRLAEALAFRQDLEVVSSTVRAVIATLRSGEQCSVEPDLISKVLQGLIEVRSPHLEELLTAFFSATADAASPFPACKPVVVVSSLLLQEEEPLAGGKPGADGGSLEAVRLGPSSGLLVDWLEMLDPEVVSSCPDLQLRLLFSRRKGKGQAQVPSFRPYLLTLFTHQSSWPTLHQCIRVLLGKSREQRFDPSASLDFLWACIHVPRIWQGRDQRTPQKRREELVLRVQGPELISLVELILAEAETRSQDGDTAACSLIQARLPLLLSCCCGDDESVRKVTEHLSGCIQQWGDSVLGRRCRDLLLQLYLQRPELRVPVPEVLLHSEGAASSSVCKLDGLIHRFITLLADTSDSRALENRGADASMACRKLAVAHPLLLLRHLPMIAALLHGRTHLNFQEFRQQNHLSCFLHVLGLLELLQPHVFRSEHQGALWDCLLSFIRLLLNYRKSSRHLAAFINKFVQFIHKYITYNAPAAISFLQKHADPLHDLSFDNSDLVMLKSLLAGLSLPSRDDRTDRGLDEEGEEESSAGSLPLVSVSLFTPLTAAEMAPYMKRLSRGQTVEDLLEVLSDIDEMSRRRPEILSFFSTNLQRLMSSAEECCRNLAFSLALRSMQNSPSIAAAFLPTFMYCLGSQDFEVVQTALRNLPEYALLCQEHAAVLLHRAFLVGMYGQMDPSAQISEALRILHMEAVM
UniProt Q8N1G4: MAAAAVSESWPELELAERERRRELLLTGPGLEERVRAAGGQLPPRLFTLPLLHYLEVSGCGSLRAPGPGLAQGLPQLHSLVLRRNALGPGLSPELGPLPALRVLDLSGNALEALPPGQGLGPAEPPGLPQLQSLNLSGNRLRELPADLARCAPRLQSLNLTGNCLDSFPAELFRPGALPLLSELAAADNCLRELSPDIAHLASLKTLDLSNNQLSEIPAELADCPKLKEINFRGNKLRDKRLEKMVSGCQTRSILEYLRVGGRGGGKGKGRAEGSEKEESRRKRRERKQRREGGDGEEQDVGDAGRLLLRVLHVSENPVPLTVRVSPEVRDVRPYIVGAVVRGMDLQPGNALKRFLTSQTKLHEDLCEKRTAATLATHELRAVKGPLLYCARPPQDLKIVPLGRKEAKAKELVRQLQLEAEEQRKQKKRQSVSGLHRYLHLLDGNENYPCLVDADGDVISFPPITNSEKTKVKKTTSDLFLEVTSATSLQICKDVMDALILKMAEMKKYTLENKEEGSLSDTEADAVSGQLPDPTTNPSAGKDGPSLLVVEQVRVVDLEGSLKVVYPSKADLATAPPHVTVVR
UniProt Q8NDV7: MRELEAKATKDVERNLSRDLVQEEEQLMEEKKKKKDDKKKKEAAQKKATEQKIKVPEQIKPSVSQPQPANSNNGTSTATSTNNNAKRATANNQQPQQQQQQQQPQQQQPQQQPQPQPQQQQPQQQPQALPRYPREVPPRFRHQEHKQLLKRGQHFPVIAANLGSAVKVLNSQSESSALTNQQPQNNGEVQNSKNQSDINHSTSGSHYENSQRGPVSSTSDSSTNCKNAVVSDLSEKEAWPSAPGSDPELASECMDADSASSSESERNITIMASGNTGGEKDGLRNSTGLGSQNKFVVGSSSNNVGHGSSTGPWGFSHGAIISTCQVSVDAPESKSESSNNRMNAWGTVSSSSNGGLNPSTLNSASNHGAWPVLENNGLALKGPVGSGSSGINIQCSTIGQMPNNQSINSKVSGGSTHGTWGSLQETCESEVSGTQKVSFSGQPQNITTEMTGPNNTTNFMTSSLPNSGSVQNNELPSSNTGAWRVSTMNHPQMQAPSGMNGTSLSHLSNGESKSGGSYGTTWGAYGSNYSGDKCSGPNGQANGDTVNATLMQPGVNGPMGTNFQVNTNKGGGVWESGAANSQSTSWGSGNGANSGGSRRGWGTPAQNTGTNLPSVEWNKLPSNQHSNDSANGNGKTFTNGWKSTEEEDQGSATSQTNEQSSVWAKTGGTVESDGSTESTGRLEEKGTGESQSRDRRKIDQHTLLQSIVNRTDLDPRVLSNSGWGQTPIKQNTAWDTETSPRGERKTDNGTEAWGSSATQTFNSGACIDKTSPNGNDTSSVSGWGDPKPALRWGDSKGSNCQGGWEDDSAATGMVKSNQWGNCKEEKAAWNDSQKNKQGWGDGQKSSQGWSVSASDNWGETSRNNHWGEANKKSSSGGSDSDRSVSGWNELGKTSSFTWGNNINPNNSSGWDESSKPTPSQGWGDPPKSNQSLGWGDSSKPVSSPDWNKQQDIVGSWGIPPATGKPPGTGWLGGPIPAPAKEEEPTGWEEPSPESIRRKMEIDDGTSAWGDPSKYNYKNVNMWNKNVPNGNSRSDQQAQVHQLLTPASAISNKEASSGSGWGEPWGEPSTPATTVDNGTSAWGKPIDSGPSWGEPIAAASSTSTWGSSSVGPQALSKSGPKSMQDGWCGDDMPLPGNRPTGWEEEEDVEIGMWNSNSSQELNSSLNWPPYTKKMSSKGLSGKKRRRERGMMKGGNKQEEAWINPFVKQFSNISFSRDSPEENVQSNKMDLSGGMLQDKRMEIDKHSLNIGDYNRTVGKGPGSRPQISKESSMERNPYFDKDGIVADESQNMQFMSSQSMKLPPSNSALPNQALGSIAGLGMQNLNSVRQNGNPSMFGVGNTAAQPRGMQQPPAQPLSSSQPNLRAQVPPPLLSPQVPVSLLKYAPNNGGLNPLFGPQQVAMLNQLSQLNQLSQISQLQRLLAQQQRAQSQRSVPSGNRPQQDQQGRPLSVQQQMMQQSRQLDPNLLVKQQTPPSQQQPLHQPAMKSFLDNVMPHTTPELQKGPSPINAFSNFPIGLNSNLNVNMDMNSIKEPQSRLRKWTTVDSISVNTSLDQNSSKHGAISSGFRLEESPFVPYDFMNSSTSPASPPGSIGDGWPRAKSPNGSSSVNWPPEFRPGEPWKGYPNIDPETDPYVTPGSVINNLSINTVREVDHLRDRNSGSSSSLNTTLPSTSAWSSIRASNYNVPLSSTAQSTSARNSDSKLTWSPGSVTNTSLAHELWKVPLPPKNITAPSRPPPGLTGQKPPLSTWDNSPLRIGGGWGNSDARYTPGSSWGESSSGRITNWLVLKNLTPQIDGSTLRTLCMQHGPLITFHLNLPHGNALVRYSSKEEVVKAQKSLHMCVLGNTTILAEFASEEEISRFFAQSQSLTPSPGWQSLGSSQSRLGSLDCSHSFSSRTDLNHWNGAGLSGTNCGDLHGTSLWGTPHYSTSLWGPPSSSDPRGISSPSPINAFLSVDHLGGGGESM

log2 ratio of iodoacetamide-alkyne labeling, inactive:
ARHGAP18 C323 (UniProt Q8N392) 0.19
SHROOM3 C1951 (UniProt Q8TF72) 0.289
UniProt Q8WXK3_C9 0.0974
RNF214 C655 (UniProt Q8ND24) 0.558
IPO4 C735 (UniProt Q8TEX9) 0.21
TTC5 C439 (UniProt Q8N0Z6) 0.0252
UBR7 C260 (UniProt Q8N806) 0.301
UniProt Q8N163_C324 0.243
PDCD6IP C524 (UniProt Q8WUM4) 0.154
ABCF1 C741 (UniProt Q8NE71) 0.17
PUM2 C169 (UniProt Q8TB72) 0.0838
ASCC3 C366 (UniProt Q8N3C0) 0.467
SLC20A1 C426 (UniProt Q8WUM9) 0.487
NEDD1 C541 (UniProt Q8NHV4) 0.0315
UniProt Q8TEJ3_C428 0.351
DGCR8 C256 (UniProt Q8WYQ5) 0.467
INTS1 C969 (UniProt Q8N201) 0.652
WDR48 C342 (UniProt Q8TAF3) 0.185
Q8V1_C158 0.576
DGCR8 C514 (UniProt Q8WYQ5) 0.147
SYNE2 C5348 (UniProt Q8WXH0) 0.0109
GADD45GIP1 C124 (UniProt Q8TAE8) 0.294
INTS1 C185 (UniProt Q8N201) -0.114
LRRC47 C224 (UniProt Q8N1G4) 0.643
ZNF740 C9 (UniProt Q8NDX6) 0.549
UniProt Q8WZA9_C373 0.706
TBC1D15 C686 (UniProt Q8TC07) 0.635
FBXO30 C396 (UniProt Q8TB52) 0.433
RNF214 C149 (UniProt Q8ND24) 0.395
SLC38A9 C41 (UniProt Q8NBW4) 0.142
ARFGAP1 C351 (UniProt Q8N6T3) 0.472
TRUB1 C269 (UniProt Q8WWH5) 0.163
TNRC6A C800 (UniProt Q8NDV7) 0.917
DDX1 C110 (UniProt Q92499) 0.315
LRRC47 C164 (UniProt Q8N1G4) -0.114
TOR1AIP2 C468 (UniProt Q8NFQ8) 0.403
UniProt Q8N0W3_C484 0.269

2 entries picked at random from the list so far:
log2 ratio of iodoacetamide-alkyne labeling, inactive:
INTS1 C969 (UniProt Q8N201) 0.652
UniProt Q8WZA9_C373 0.706

Source: the supplement of paper PMC11006884
